According to publication PMC4574971:
No constants are given. Whether binding was seen depends on the method and setting. In cells and extracts the contact can be indirect. Binding can be weak; no strength is given.

Key:
[1] = target: dystrophin 71d (rat (endogenous in cultured hippocampal neurons)); assay: co-IP; nucleoskeleton fraction (1 mg) of cultured rat hippocampal neurons, precleared, incubated overnight at 4°C with Dys-2 (Dp71d) or 5F3 (Dp71f) Ab bound to protein G-agarose; washed three times with RIPA buffer; western blot; anti-CD4 Ab as unrelated control
[2] = target: dystrophin 71f (rat (endogenous in cultured hippocampal neurons)); assay: as above

binding [1]: binds
binding [2]: binds
B1: β-dystrobrevin (protein, UniProt P84060 1-654)
chain: MIEEGGNKRKTMAEKRQLFIEMRAQNFDVIRLSTYRTACKLRFVQKRCNLHLVDIWNMIEAFRDNGLNTLDHATEISVSRLETVISSIYYQLNKRLPSTHQINVEQSISLLLNFMIAAYDSEGRGKLTVFSVKAMLATMCGGKMLDKLRYIFSQMSDSNGLMMFGKLDQFLKEALKLPTAVFEGPSFGYTEHAVRTCFPQQKKIMLNMFLDTMMADPPPQCLVWLPLMHRLAHVENVFHPVECSYCHCESMMGFRYRCQQCHNYQLCQNCFWRGHAGGPHSNQHQMKELSSWKSPAKKLSHAISKSLGCVPSREPPHPVFPEQPEKPLDLAHIVPPRPLTNMNDTMVSHMSSGVPTPTKRLQYGQDMPNLLADEHALIASYVARLQHCTRVLDSPSRLDEEHRLIARYAARLAAEAGNMTRPPTDASFNFDANKQQRQLIAELENKNREILQEIQRLRLEHEQASQPTPEKAQQNPTLLAELRLLRQRKDELEQRMSALQESRRELMVQLEGLMKLLKAQATGSPHTSPTHGGGRSMPMPVRSTSAGSTPTHGPQDSLSGVGGDVQEAFAQGTRRNLRNDLLVAADSITNTMSSLVKELHSGETQRFPLVSSSPSCPLPCPTIPTHSPSFHATFPSRNTRDLHPVPPSHMVSLY
